Source: EP4768480A1, “ALKOXY THIOPHENE ACYL ARYLAMINE COMPOUNDS AND USE THEREOF” (priority 2024, dated 2025)
For at least one compound, name, drawing or mass did not settle the structure.

Molecular target: T1, SMS2 (Homo sapiens, UniProt Q8NHU3)
T1 construct: CAO, Yu research team, National Protein Scientific Center (Shanghai); supplied by an outside laboratory, not a commercial vendor
T1 sequence (Q8NHU3 1-365): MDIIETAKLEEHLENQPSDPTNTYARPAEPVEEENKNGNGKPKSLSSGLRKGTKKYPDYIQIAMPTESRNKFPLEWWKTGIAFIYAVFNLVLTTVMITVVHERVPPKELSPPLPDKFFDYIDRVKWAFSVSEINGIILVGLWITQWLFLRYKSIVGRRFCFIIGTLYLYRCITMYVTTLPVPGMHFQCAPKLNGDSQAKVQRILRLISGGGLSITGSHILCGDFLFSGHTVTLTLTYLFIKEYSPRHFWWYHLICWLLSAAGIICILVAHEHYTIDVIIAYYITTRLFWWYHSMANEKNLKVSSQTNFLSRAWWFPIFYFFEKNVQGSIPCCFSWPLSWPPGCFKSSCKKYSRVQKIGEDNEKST
Test: SMS2 inhibitory activity in vitro, HPLC fluorescence quantitative detection (C6-NBD-ceramide to C6-NBD-SM)
Type: biochemical
Conditions: 1 µM test compound; SMS2 pure enzyme; 37°C, 30 minutes; average of two measurements
Text: • 1. Electro-thermostatic water bath, from Shanghai Yiheng Technology Co., Ltd.); • 2. Vortex Mixer, with model ID of XW-80A, from Shanghai Jingke Industrial Co., Ltd.; • 3. […] High Performance Liquid Chromatography Agilent 1100, equipped with a quaternary pump, vacuum degassing, and FLD fluorescence detector, from Agilent Technologies, Palo Alto, CA, USA; • 5. HPLC column COSMOSIL 5C18-MS-II (4.6mm I.D. X 250mm); • 6. […] The organic solvents used in the present disclosure were purchased from Shanghai National Reagent Company, wherein methanol was pure chromatography; water was ultra-pure water which is filtrated by Milli-Q pump, deionized and ultra-filtrated with 0.22 µm membrane; and other biological consumables were purchased from domestic companies; • 8. Preparation of test compound solutions: each test compound was accurately weighed and dissolved in an appropriate volume of DMSO to prepare a 10 mmol/L stock solution. The stock solution was then diluted with an appropriate volume of DMSO to achieve the desired working concentration; • 9. […]
The peak area values of A(sm) and A(ceramide) in the HPLC chromatogram corresponding to C6-NBD-SM and C6-NBD-Ceramide in the DMSO group and inhibitor group samples were analyzed and recorded, and the inhibition rate of the test compound was calculated according to the following formula. […]

**Q.** For `CCOP(=O)(OCC)Oc1ccc(Cl)c(COc2ccsc2C(=O)Nc2cccnc2)c1` [1-25, 4-chloro-3-[(2-(pyridin-3-ylcarbamoyl)thiophene-3-yl)oxymethyl]benzylphosphonate], which “Inhibition rate on SMS2 at C/µM 1” value is on record?
**A.** The value was 1%.
